# In PubChem BioAssay AID540276 (National Center for Advancing Translational Sciences (NCATS), 2011):
# About 5,400 (1.8%) of roughly 300,000 compounds were called active. Inconclusive results, whose numbers are uncertain, are shown with a selection of clear calls. Calls come from the whole dose curve; tested in HEK293 cells. Where the call is inconclusive, the potency comes from a doubtful curve fit.
# Experiment: qHTS for inhibitors of binding or entry into cells for Marburg Virus
# Settings: Marburg virus pseudotyped entry inhibition, cell reporter; series mostly up to 37.8 µM
# Potency is the fitted concentration of half-maximal effect.
row,SMILES,Potency
1,CCCc1cc(-c2n[nH]c(=S)n2CC(C)C)cs1,inactive
2,O=C(COC(=O)c1ccccc1F)c1ccc(-n2nncc2-c2ccco2)cc1,inactive
3,Cc1ccc(C(C)C)cc1-n1nnc(-c2cccc(Cc3ccc4ccccc4c3)c2)c1C(C)O (stereo not drawn),"inconclusive: 2.5 µM [inhibitor, full curve, poor fit]"
4,O=C(c1cccs1)N(c1ccc(Cl)cc1)C1C=CS(=O)(=O)C1 (stereo not drawn),"inconclusive: 17.8 µM [inhibitor, single point]"
5,O=C(COCC(=O)N1CCOCC1)N1CCOCC1,"inconclusive: 3.16 µM [inhibitor, single point]"
6,COc1ccccc1NS(=O)(=O)c1ccc2oc(SCc3ccc(F)cc3)nc2c1,"inconclusive: 35.5 µM [inhibitor, single point]"
7,COc1ccc(O)c(/C=N/NC(=O)c2c(C)nnn2-c2nonc2N)c1,"inconclusive: 5.62 µM [inhibitor, single point]"
8,COc1cc(/C=N/Nc2nc(Nc3ccc(C)cc3)nc(-n3nc(C)cc3C)n2)cc(OC)c1OC,"inconclusive: 11.6 µM [inhibitor, partial curve]"
9,COc1ccc2c(c1OC)C(=O)N(c1ncn[nH]1)C2,"inconclusive: 0.447 µM [activator, partial curve, poor fit]"
10,CC(=O)N/C(=C\c1ccccc1)C(=O)OCc1ccc(F)cc1,"inconclusive: 3.16 µM [activator, single point]"
11,N#Cc1c(OCC(=O)c2ccccc2)nc2c(c1-c1ccco1)CCc1ccccc1-2,inactive
12,COc1ccc(/C=c2/sc3n(c2=O)NC2(c4ccccc4)N(C)C(=O)N(C)C2(c2ccccc2)N=3)cc1 (stereo not drawn),"inconclusive: 3.98 µM [inhibitor, partial curve, poor fit]"
13,CCN(CC)CCCNC(=O)/C=C/C(=O)O,inactive
14,CC1=NN(c2ccc(F)cc2)C(=O)C1C(c1cccc(O)c1)c1c(C)[nH]n(-c2ccc(F)cc2)c1=O (stereo not drawn),"inconclusive: 2.82 µM [activator, partial curve, poor fit]"
15,O=C(Nc1ccccc1)C1COc2ccccc2O1 (stereo not drawn),inactive
16,Cc1cccc(CC2C(=O)Nc3ccccc32)c1 (stereo not drawn),"inconclusive: 8.91 µM [inhibitor, partial curve, poor fit]"
17,COc1ccc(NC(=O)CSc2nnc(-c3cccc(O)c3)o2)cc1,"inconclusive: 3.16 µM [activator, full curve]"
18,CCOc1ccc(C2=NC(c3cccs3)=Nc3ccc(C(C)C)cc3N2)cc1,"inconclusive: 2.51 µM [activator, single point]"
19,O=C(NCc1cccs1)c1nc2c(nnn2Cc2ccccc2Cl)c(=O)[nH]1,"inconclusive: 3.16 µM [inhibitor, full curve, poor fit]"
20,COc1ccc2cc3cc(C(=O)NCc4ccc5c(c4)OCO5)oc3nc2c1,"inconclusive: 35.5 µM [inhibitor, single point]"
21,Cc1cc(C)n2nc(C(=O)Nc3cccc(S(=O)(=O)N4CCOCC4)c3)nc2n1,"inconclusive: 35.5 µM [activator, single point]"
22,CCOc1ccc(S(=O)(=O)Nc2cccc(OC)c2)cc1,"inconclusive: 0.326 µM [inhibitor, partial curve, poor fit]"
23,O=C(CN1CCN(CC(=O)Nc2ccccc2Cl)CC1)Nc1ccc2c(c1)OCCO2,"inconclusive: 1.12 µM [activator, single point]"

# Fetched by structure from the list above:
row,SMILES,Potency
16,Cc1cccc(CC2C(=O)Nc3ccccc32)c1 (stereo not drawn),"inconclusive: 8.91 µM [inhibitor, partial curve, poor fit]"
3,Cc1ccc(C(C)C)cc1-n1nnc(-c2cccc(Cc3ccc4ccccc4c3)c2)c1C(C)O (stereo not drawn),"inconclusive: 2.5 µM [inhibitor, full curve, poor fit]"

# Remaining list, next part:

row,SMILES,Potency
1,CCOc1ccc(-c2noc(CCCC(=O)NC3CCCCC3)n2)cc1OC,"inconclusive: 11.2 µM [inhibitor, single point]"
2,COc1ccc(/C=N/NC(=O)c2ccccc2O)cc1Cn1cc(Cl)cn1,"inconclusive: 0.355 µM [inhibitor, full curve, poor fit]"
3,Cc1c(/C=N\NC(=O)c2csc3ccccc23)cnn1C,inactive
4,COc1ccc(-c2nn(C)c(=O)c3ccccc23)cc1NC(=O)COc1ccc(C)cc1,"inconclusive: 16.4 µM [inhibitor, single point]"
5,CCCc1nc(SCC(=O)Nc2cc(C)on2)c2ccccc2n1,"inconclusive: 11.6 µM [inhibitor, partial curve]"
6,O=C1CC(c2ccc(F)cc2)c2cc3c(cc2N1)CCC3 (stereo not drawn),"inconclusive: 35.5 µM [inhibitor, single point]"
7,Cc1ccc(-n2c(C)cc(C(=O)CN3CCOCC3)c2C)cc1C,inactive
8,Cc1ccc(C)c(Nc2nc(-c3cccnc3)cs2)c1,"inconclusive: 10 µM [inhibitor, partial curve, poor fit]"
9,CC(C)COC(=O)c1ccc2c(c1O)C(=O)c1ccccc1C2=O,"inconclusive: 11.6 µM [inhibitor, single point]"
10,O=C(NCC(c1cccs1)N1CCOCC1)C1CCN(S(=O)(=O)c2cc(Cl)ccc2Cl)CC1 (stereo not drawn),"inconclusive: 0.0891 µM [inhibitor, full curve, poor fit]"
11,O=C(Cc1ccccc1)Nc1ccccc1N1CCN(c2ccccc2)CC1,"inconclusive: 4.61 µM [inhibitor, full curve, poor fit]"
12,CSc1cccc(NC(=O)COc2ccccc2C)c1,inactive
13,CCN(CC)CCNC(C(=O)Nc1cccc(C(C)=O)c1)c1ccccc1 (stereo not drawn),"inconclusive: 7.08 µM [inhibitor, partial curve, poor fit]"
14,Cc1ccccc1NS(=O)(=O)c1ccc(Br)s1,inactive
15,CC(C)(C)CC(C)(C)NC(=O)CSCC(=O)Nc1ccc2ccccc2c1,"inconclusive: 29.1 µM [inhibitor, single point]"
16,S=c1[nH]cnc2scc(-c3ccccc3)c12,inactive
17,Cc1ccc(CN2CCC(c3cc(-c4ccc(Cl)cc4)n[nH]3)CC2)cc1,"inconclusive: 10 µM [inhibitor, partial curve, poor fit]"
18,COc1ccc2cc(-c3csc(-c4cccnc4)n3)ccc2c1,"inconclusive: 10 µM [activator, partial curve, poor fit]"
19,Cc1cc(C)nc(NC(=O)/C=C/c2ccccc2Cl)n1,"inconclusive: 35.5 µM [inhibitor, single point]"
20,CCCc1nc2oc3ccccc3c(=O)c2c(=O)n1-c1ccccc1,inactive
21,CC1(/[N+]([O-])=C/c2ccccc2F)CCCCC1=O (stereo not drawn),"inconclusive: 35.5 µM [inhibitor, single point]"
22,O=C(Nc1ccccc1)c1ccc(-c2ccccc2C(F)(F)F)o1,"inconclusive: 12.5 µM [activator, partial curve]"
23,COc1ccc(N(CC(=O)N2CCN(Cc3ccccc3)CC2)S(=O)(=O)c2ccccc2)cc1,"inconclusive: 25.1 µM [activator, single point]"

row,SMILES,Potency
1,CCN(CC)Cc1c(O)ccc2c(-c3ccccc3)cc(=O)oc12,inactive
2,O=C(CSC1=NC2(CCCCCC2)N=C1c1ccccc1)Nc1ccc2c(c1)OCCO2,"inconclusive: 25.9 µM [inhibitor, single point]"
3,CCN(CC(=O)Nc1c(F)cccc1F)C(=O)C1COc2ccccc2O1 (stereo not drawn),"inconclusive: 20 µM [inhibitor, single point]"
4,CCC/C(O)=C1\C(=O)CC(c2ccccc2)CC1=NCCc1c(C)[nH]c2ccccc12 (stereo not drawn),inactive
5,CN1CCC2(CC1)Nc1nc(SCc3ccc(Cl)cc3)nn1C1=C2CN(C)CC1,"inconclusive: 7.94 µM [inhibitor, partial curve, poor fit]"
6,Cc1ccc(C2=NC(C)(C)NC2=O)cc1,inactive
7,Cc1c(NS(=O)(=O)c2cccc(C(=O)Nc3ccc(SC(F)F)cc3)c2)c(=O)n(-c2ccccc2)n1C,"inconclusive: 20 µM [inhibitor, single point]"
8,Cc1cc(N2CCCC2=O)ccc1S(=O)(=O)Nc1c(C)nn(C)c1C,"inconclusive: 3.16 µM [inhibitor, full curve, poor fit]"
9,Cc1ccccc1C(=NCCCN(C)C)c1ccccc1C,"inconclusive: 35.5 µM [inhibitor, partial curve, poor fit]"
10,CC(=O)c1sc(NC(=O)COc2ccc(Cl)cc2C)nc1C,"inconclusive: 5.62 µM [activator, single point]"
11,COC(=O)c1ccc(C(=O)OC)c(NC(=S)N2CCN(c3cccc(Cl)c3)CC2)c1,"inconclusive: 6.31 µM [activator, single point]"
12,Clc1nssc1=Nc1ccc(Br)cc1,inactive
13,COc1ccc(-c2cc(C(F)(F)F)n3nc(C(=O)N4CCN5CCCC5C4)cc3n2)cc1OC (stereo not drawn),"inconclusive: 7.08 µM [inhibitor, partial curve, poor fit]"
14,COc1cccc(-n2c(SCC(=O)NC3CCCCC3)nc3n[nH]c(C)c3c2=N)c1,"inconclusive: 17.8 µM [inhibitor, single point]"
15,COC(=O)Nc1sc2c(c1C(N)=O)CCCCCC2,inactive
16,CN(C(=O)Oc1cccc2ccccc12)C1C=CCC1 (stereo not drawn),"inconclusive: 20 µM [activator, single point]"
17,CCCOC(=O)CSc1nnc2ccc3ccccc3n12,inactive
18,CN(C)S(=O)(=O)c1ccc(NC(=O)CSc2nc3ccccc3n2-c2ccccc2)cc1,"inconclusive: 29.1 µM [inhibitor, single point]"
19,CC(=O)Nc1ncc(Cc2cccc(Cl)c2)s1,"inconclusive: 35.5 µM [inhibitor, single point]"
20,CCOc1ccc(C(CC(=O)O)NC(=O)c2cccs2)cc1 (stereo not drawn),inactive
21,COCCNC(=O)CSc1nnc(NC(=O)C2CC(=O)N(c3ccccc3OC)C2)s1 (stereo not drawn),inactive
22,Cc1ccc(NC(=O)CCl)cc1S(=O)(=O)N1CCCCCC1,"inconclusive: 17.8 µM [inhibitor, partial curve, poor fit]"

# Of the compounds above, 2 contain a COOH group.
row,SMILES,Potency
13,CCN(CC)CCCNC(=O)/C=C/C(=O)O,inactive
20,CCOc1ccc(C(CC(=O)O)NC(=O)c2cccs2)cc1 (stereo not drawn),inactive
